The text below walks through data of publication doi:10.1101/2022.01.05.475124.

No constants are given. Whether binding was seen depends on the method and setting. In cells and extracts the contact can be indirect. Some binding calls cover weakened binding; strength is not graded here. For some assays here: Tags and fused reporters may be left off the sequences shown.

The target of test [1] is gp130-Flag (gp130 FLAG plasmid), in adult human articular chondrocytes (UniProt P40189). Description: co-IP.
In test [2] the target is T1, gp130-Flag (gp130 FLAG plasmid), in adult human articular chondrocytes, P40189.
T1 chain: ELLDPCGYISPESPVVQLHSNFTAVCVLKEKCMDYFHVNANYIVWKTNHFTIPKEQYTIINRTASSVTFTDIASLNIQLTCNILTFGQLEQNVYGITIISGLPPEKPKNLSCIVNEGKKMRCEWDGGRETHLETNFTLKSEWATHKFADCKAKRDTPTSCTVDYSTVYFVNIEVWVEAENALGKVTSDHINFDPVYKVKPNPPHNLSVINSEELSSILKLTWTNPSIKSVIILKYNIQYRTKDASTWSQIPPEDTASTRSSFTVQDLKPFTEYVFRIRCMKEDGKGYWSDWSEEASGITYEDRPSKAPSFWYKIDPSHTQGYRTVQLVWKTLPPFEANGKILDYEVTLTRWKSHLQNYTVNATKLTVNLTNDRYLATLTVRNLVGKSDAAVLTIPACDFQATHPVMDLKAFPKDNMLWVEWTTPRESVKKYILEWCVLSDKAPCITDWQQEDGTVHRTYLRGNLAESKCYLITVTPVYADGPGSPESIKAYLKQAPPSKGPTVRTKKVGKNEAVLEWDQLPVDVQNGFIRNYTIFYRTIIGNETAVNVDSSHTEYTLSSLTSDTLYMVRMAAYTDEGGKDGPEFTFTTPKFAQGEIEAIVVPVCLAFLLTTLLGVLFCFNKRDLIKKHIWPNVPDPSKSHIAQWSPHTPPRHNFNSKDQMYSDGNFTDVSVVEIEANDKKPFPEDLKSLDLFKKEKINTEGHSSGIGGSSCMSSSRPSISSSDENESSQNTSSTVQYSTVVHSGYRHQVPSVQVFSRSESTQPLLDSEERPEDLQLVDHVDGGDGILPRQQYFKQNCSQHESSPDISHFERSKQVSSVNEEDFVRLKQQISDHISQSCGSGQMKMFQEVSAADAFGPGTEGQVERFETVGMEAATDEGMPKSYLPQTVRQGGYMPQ
Kind of test: co-IP. As to conditions: remark: other sources report otherwise.

B1: LIFR (leukemia inhibitory factor receptor) (receptor, UniProt P42702 45-1097)
chain: QKKGAPHDLKCVTNNLQVWNCSWKAPSGTGRGTDYEVCIENRSRSCYQLEKTSIKIPALSHGDYEITINSLHDFGSSTSKFTLNEQNVSLIPDTPEILNLSADFSTSTLYLKWNDRGSVFPHRSNVIWEIKVLRKESMELVKLVTHNTTLNGKDTLHHWSWASDMPLECAIHFVEIRCYIDNLHFSGLEEWSDWSPVKNISWIPDSQTKVFPQDKVILVGSDITFCCVSQEKVLSALIGHTNCPLIHLDGENVAIKIRNISVSASSGTNVVFTTEDNIFGTVIFAGYPPDTPQQLNCETHDLKEIICSWNPGRVTALVGPRATSYTLVESFSGKYVRLKRAEAPTNESYQLLFQMLPNQEIYNFTLNAHNPLGRSQSTILVNITEKVYPHTPTSFKVKDINSTAVKLSWHLPGNFAKINFLCEIEIKKSNSVQEQRNVTIKGVENSSYLVALDKLNPYTLYTFRIRCSTETFWKWSKWSNKKQHLTTEASPSKGPDTWREWSSDGKNLIIYWKPLPINEANGKILSYNVSCSSDEETQSLSEIPDPQHKAEIRLDKNDYIISVVAKNSVGSSPPSKIASMEIPNDDLKIEQVVGMGKGILLTWHYDPNMTCDYVIKWCNSSRSEPCLMDWRKVPSNSTETVIESDEFRPGIRYNFFLYGCRNQGYQLLRSMIGYIEELAPIVAPNFTVEDTSADSILVKWEDIPVEELRGFLRGYLFYFGKGERDTSKMRVLESGRSDIKVKNITDISQKTLRIADLQGKTSYHLVLRAYTDGGVGPEKSMYVVTKENSVGLIIAILIPVAVAVIVGVVTSILCYRKREWIKETFYPDIPNPENCKALQFQKSVCEGSSALKTLEMNPCTPNNVEVLETRSAFPKIEDTEIISPVAERPEDRSDAEPENHVVVSYCPPIIEEEIPNPAADEAGGTAQVIYIDVQSMYQPQAKPEEEQENDPVGGAGYKPQMHLPINSTVEDIAAEEDLDKTAGYRPQANVNTWNLVSPDSPRSIDSNSEIVSFGSPCSINSRQFLIPPKDEDSPKSNGGGWSFTNFFQNKPND
Take B1: the binding result in test [1] is “binds”.

B2: OSMR (oncostatin M receptor), Q99650 28-979 (receptor)
chain: ERLPLTPVSLKVSTNSTRQSLHLQWTVHNLPYHQELKMVFQIQISRIETSNVIWVGNYSTTVKWNQVLHWSWESELPLECATHFVRIKSLVDDAKFPEPNFWSNWSSWEEVSVQDSTGQDILFVFPKDKLVEEGTNVTICYVSRNIQNNVSCYLEGKQIHGEQLDPHVTAFNLNSVPFIRNKGTNIYCEASQGNVSEGMKGIVLFVSKVLEEPKDFSCETEDFKTLHCTWDPGTDTALGWSKQPSQSYTLFESFSGEKKLCTHKNWCNWQITQDSQETYNFTLIAENYLRKRSVNILFNLTHRVYLMNPFSVNFENVNATNAIMTWKVHSIRNNFTYLCQIELHGEGKMMQYNVSIKVNGEYFLSELEPATEYMARVRCADASHFWKWSEWSGQNFTTLEAAPSEAPDVWRIVSLEPGNHTVTLFWKPLSKLHANGKILFYNVVVENLDKPSSSELHSIPAPANSTKLILDRCSYQICVIANNSVGASPASVIVISADPENKEVEEERIAGTEGGFSLSWKPQPGDVIGYVVDWCDHTQDVLGDFQWKNVGPNTTSTVISTDAFRPGVRYDFRIYGLSTKRIACLLEKKTGYSQELAPSDNPHVLVDTLTSHSFTLSWKDYSTESQPGFIQGYHVYLKSKARQCHPRFEKAVLSDGSECCKYKIDNPEEKALIVDNLKPESFYEFFITPFTSAGEGPSATFTKVTTPDEHSSMLIHILLPMVFCVLLIMVMCYLKSQWIKETCYPDIPDPYKSSILSLIKFKENPHLIIMNVSDCIPDAIEVVSKPEGTKIQFLGTRKSLTETELTKPNYLYLLPTEKNHSGPGPCICFENLTYNQAASDSGSCGHVPVSPKAPSMLGLMTSPENVLKALEKNYMNSLGEIPAGETSLNYVSQLASPMFGDKDSLPTNPVEAPHCSEYKMQMAVSLRLALPPPTENSSLSSITLLDPGEHYC
As for B2, the binding entry in test [2] is “binds”.
